Article PMC4349446
These are yes or no findings as the source states them, for the method shown. Tags and fused reporters may be left off the sequences shown.

Sequences of proteins named here, by UniProt entry; tags and fusion partners are left off. Residues count along the entry.
UniProt Q9EQ09, residues 55-363: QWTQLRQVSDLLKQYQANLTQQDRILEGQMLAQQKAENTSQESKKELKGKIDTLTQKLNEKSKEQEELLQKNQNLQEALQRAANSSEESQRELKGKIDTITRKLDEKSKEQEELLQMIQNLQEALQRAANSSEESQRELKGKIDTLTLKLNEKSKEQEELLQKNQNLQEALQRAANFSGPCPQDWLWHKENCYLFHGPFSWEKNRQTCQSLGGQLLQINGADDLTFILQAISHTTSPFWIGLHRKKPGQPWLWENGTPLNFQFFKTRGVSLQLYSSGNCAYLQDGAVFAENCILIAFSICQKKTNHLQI

Biological target: T1, mouse SAA3 fused to the GAL4 DNA-binding domain (mouse) (UniProt P04918)
T1 sequence: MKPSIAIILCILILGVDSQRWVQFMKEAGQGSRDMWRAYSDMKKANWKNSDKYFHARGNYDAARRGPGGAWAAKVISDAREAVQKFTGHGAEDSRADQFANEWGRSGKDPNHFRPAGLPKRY
Assay: two-hybrid; confirmation and deletion assays: baits fused to the GAL4 DNA-binding domain, preys fused to the GAL4-activation domain (pGADT7); growth in SD-4 (-Leu, -Trp, -His, -Ade) in a series of dilutions

binding: no binding
Substance: mouse LOX-1 extracellular domain fused to the GAL4-activation domain (from UniProt Q9EQ09 55-363) (domain or fragment)
